Results are given in words; binding and its absence hold for the method and conditions named. Binding seen in cells or lysates may run through a third protein. Binding can be weak; no strength is given.
Target: T7-mCul5^K799R (mouse) (UniProt Q9D5V5)
Test: co-IP; anti-T7 antibody and protein A/G beads from transiently transfected HeLa lysate (1% Triton X-100 buffer); cells (also Cul5-depleted or EphA2-depleted) treated with 75 µM vanadate (with or without 1 µM MLN4924) for 24 hr or 1 mM pervanadate for 30 min; in one panel DMSO, 1 µM SU6656 or 200 nM Dasatinib for 2 hr before pervanadate (Dasatinib inhibited, SU6656 did not)

Sequences of proteins named here, by UniProt entry; tags and fusion partners are left off. A change or cut given only in a name is not applied to a line headed by its entry. Residues count along the entry.
UniProt Q9D5V5: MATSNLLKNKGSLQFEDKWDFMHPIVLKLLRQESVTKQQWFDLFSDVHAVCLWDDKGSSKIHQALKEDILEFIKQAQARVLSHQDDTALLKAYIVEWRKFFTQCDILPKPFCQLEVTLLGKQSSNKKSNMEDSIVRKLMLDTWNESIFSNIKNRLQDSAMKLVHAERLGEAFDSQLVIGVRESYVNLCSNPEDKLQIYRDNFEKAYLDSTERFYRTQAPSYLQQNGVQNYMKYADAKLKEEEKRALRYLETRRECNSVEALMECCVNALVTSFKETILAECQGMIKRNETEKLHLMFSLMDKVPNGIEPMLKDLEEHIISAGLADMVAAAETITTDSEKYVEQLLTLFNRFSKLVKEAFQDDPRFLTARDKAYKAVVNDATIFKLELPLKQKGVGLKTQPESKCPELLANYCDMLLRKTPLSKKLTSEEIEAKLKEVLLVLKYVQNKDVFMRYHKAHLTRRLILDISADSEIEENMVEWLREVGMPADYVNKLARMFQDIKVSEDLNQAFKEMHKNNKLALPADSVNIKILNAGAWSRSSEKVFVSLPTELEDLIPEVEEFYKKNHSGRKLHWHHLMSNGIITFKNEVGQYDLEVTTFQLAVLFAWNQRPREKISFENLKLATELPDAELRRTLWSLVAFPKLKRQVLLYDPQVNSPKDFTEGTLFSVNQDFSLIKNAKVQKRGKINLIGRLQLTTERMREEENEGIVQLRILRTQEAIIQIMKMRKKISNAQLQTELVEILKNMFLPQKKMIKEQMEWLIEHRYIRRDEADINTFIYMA
UniProt P29317, residues 24-976: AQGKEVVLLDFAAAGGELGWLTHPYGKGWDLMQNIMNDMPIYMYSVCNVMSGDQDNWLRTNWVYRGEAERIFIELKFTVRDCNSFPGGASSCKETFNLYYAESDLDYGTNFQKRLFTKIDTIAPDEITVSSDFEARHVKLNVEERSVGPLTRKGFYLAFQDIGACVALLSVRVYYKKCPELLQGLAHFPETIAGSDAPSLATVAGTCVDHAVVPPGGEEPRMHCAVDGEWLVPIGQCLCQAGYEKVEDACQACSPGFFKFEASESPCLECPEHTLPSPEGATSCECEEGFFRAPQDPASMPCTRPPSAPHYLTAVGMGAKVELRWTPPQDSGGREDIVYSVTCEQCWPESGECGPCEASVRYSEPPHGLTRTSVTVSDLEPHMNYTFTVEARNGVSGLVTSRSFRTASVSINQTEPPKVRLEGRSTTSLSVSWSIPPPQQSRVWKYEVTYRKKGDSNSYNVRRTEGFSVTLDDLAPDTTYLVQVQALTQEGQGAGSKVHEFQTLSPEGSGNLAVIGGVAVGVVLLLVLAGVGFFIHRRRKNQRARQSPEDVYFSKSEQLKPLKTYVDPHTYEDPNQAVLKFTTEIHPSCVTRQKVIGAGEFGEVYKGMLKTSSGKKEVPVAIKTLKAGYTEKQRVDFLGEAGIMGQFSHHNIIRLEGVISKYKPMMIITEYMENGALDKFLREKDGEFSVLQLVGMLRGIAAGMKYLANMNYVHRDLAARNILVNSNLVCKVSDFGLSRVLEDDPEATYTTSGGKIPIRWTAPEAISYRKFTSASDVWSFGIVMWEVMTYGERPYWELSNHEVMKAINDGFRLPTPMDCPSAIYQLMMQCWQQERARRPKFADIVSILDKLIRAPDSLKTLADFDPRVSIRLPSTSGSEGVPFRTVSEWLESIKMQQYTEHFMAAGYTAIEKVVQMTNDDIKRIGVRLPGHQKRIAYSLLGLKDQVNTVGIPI

Igk–Myc hEphA2 WT (from UniProt P29317 24-976) (receptor)
binding: binds

Source: PMC5589800
